The source of these data is PubChem BioAssay AID445 (National Center for Advancing Translational Sciences (NCATS), 2006).

The structures appear in SMILES notation. The list shows a part of the results. These are further read-outs of the screen, such as a control signal, another cell line or another target. No call is given for them. Most of these compounds were active or inconclusive in the main read-out, so they are no random draw. Potencies come from curve fits of mixed quality, noted in brackets.

The nature of the assay: IkB Signaling. The conditions noted are these: ABC-DLBCL IkBa-CBG/CBR dual luciferase ratio (green luciferase fused to IkBa over red control in OCI-Ly3 lymphoma cells), 4 h; measured here: control luc red channel unless noted. An excerpt:
NIH Molecular Libraries Screening Centers Network [MLSCN]
NIH Chemical Genomics Center [NCGC]
Nuclear factor kappa-B (NF-kappa-B) plays an important role in normal B cell development and survival. Diffuse large B cell lymphoma (DLBCL) is the most commonly observed type of non-Hodgkin's lymphoma. Gene expression analysis has identified an activated B cell-like subtype of DLBCL (ABC-DLBCL) which expresses known NF-kappa-B target genes. […] However, targets upstream of IKK have been largely unexplored and so nodes upstream of IKK in the NF-kappa-B pathway remain untested due to the lack of chemical probes.
A cell-sensor assay for I-kappa-B-alpha stabilization was developed with NIH investigator Dr. R. Eric Davis in Dr. Louis M. Staudt's laboratory. The assay uses green (CBG68) and red (CBR) emitting beetle luciferases [Chroma-Glo(TM) developed by Promega Corp.] where the green luciferase is fused to I-kappa-B-alpha and the red luciferase is present in its native state. Both luciferase genes are stably present in the OCI-Ly3 human ABC DLBCL cell line, but their expression is under the control of tetracycline-inducible promoters. Following the addition of doxycycline to induce expression of the luciferases, the green luminescence in control cultures rises only slowly because the CBG fusion partner I-kappa-B-alpha is targeted by IKK activity for rapid degradation. In contrast, green luminescence rises rapidly in the presence of proteasome inhibitors or IKK inhibitors. The rise in red luminescence of CBR is not affected by proteasome or IKK inhibitors, and serves as normalization for cell number and nonspecific effects. Compounds were screened as a concentration-titration series that ranged from 57 uM to 0.7 nM.
NCGC Assay Protocol Summary:
Cells were seeded in 1536-well plates at 5000 cells/3ul in IMDM medium containing 0.5% FBS, w/o phenol red, L-glutamine, 25 mM HEPES, 3 mg/ml sodium bicarbonate. After centrifugation for 1 min. at 1000 rpm, 23 nl of compounds or DMSO were delivered to each well using a pin tool. Then 1ul 80ng/ml doxycycline was dispensed into white solid 1536-well plates and the plates were incubated at 37C/5% C02 in a cell incubator for 4 hrs. Then 4 ul Chroma-Glo luminescent substrate mix (Promega) was added to each well. The plate was incubated at R.T. for 10-15 min. The plates were measured on a ViewLux plate reader for green luminescence (540/20 nm filter) and red luminescence (618/8 nm filter). The green and red luminescent signals were corrected for red and green luminescence filter overlap using previously determined filter calibration constants (determined using the procedure outlined in the Promega Technical Manual). The %Activity was determined from the ratio of corrected green/red luminescent values. Green luminescent and ratio %Activity was determined by normalizing to the difference in signal between basal cells (0% Activity) and cells incubated with 10 uM of the proteasome inhibitor MG-132 (100% Activity). Red luminescent %Activity was normalized to the difference between red luminesence in basal cells (0%Activity) and zero luminescence (-100% Activity).
Concentration-response curves were fitted to the signals arising from the green luminescence (I-kappa-B-alpha-luciferase fusion; IkB-luc) and the red luminescence (unfused luciferase; luc) as well as the calculated ratio. The concentration-effect curves were then classified based on curve quality (r2), response magnitude and degree of measured activity. Compounds were then categorized based on their concentration-response curves for all three datasets (Ikb-luc, luc and ratio).
Keywords: IKK, I-kappa-B, IkB, IkBa, cytotoxicity, luminescence, MLSMR, MLSCN, NIH Roadmap, qHTS, NCGC
In the case of `N=C1C(c2ccccc2)=C(O)C2CCc3ccccc3N12` (configuration not stated), the AC50 was 25.1 µM [falling, partial curve].

For `CCOc1ccc(C2C(=O)N(C3CCCCC3)CC(=O)N2CCC2=CCCCC2)cc1OC` (configuration not stated), the AC50 is 3.16 µM [falling, partial curve].

Turning to `CCOc1ccccc1NC(=O)CSC1=Nc2ccccc2C2=NC(CC(=O)NCc3ccc4c(c3)OCO4)C(=O)N12` (configuration not stated), the half-maximal activity concentration (AC50) is 31.6 µM [falling, partial curve].

As for `Cc1nn(CC(=O)NCCc2ccccc2)c(=O)c2c1sc1ccccc12`, the half-maximal activity concentration (AC50) is 7.94 µM [falling, partial curve].

Consider `O=c1cc(-c2ccccc2)n2c(SCc3ccc(Br)cc3)nnc2[nH]1`, for which the AC50 is 0.794 µM [rising, full curve].

On to `c1ccc(-c2onc3cc4c(cc23)OCCO4)cc1`, for which the AC50 was 20 µM [falling, single point].

For `COc1ccc(-n2ccnc(NCCc3ccc(Cl)cc3)c2=O)cc1OC`, the AC50 is 12.6 µM [falling, partial curve].

Take `CCN(Cc1ccccc1)Cc1c(O)ccc2oc(C)c(C(=O)Nc3ccccc3C)c12`: the AC50 was 12.6 µM [falling, partial curve].

Consider `CCn1cc(C(=O)N2CCN(c3ccc(OC)cc3)CC2)c2cc(OC)c(OC)cc2c1=O`, for which the AC50 is 0.0398 µM [falling, partial curve].

As for `CCOc1ccccc1C1C(C(=O)Nc2ccccc2)=C(C)Nc2c(C(=O)Nc3ccc(F)cc3)cnn21` (configuration not stated), the AC50 is 10 µM [falling, partial curve].

In the case of `CCOc1ccc(-c2cccc(NS(=O)(=O)c3ccccc3C(F)(F)F)c2)nn1`, the AC50 is 0.00794 µM [falling, full curve].

With `O=S(=O)(c1ccc2nc(Nc3cccc(F)c3)ccc2c1)N1CCCC1`, the AC50 is 20 µM [falling, partial curve, poor fit].

`Cc1ccccc1Cn1c2ccccc2c2cnn(CC(=O)N3CCC(C)CC3)c(=O)c21`: the AC50 was 7.94 µM [falling, partial curve].

With `Cc1ccc(S(=O)(=O)NCC(Nc2cccc(Cl)c2)c2ccccc2)cc1` (configuration not stated), the AC50 was 20 µM [falling, single point].

On to `O=C(CCCn1c(=S)[nH]c2cc3c(cc2c1=O)OCO3)N1CCN(c2ccccn2)CC1`, for which the AC50 was 20 µM [falling, partial curve].

Regarding `CCn1c(C(=O)N2CCCC(C(=O)N3CCN(c4ccccc4)CC3)C2)cc2sccc21` (configuration not stated), the AC50 was 12.6 µM [falling, partial curve].

Regarding `C=CCn1c(NC(C)c2cc(Cl)ccc2O)nc2ccccc21` (configuration not stated), the AC50 was 25.1 µM [falling, partial curve].

On to `CCCCn1c(=O)n(CC(=O)NCc2ccc(C)cc2)c(=O)c2c1nc(CO)n2CCC`, for which the AC50 is 15.8 µM [falling, partial curve].

As to `COc1ccc2c(c1)cc(CNc1ccc(OC)c(OC)c1)c(=O)n2CC(=O)Nc1ccc(F)cc1`, the AC50 was 3.98 µM [falling, full curve].

On to `CCOC(=O)c1c(C)[nH]c(C)c1C(=O)Cn1nnc(-c2ccccc2C)n1`, for which the AC50 was 25.1 µM [falling, single point].

Turning to `O=C(Nc1nc(-c2nc3ccccc3s2)cs1)c1ccc(S(=O)(=O)N2CCOCC2)cc1`, the AC50 was 3.16 µM [falling, full curve].

On to `Cc1c(C(=O)Nc2ccc(F)c(F)c2)oc2ccc(S(=O)(=O)N3CCCCC3)cc12`, for which the AC50 was 6.31 µM [falling, partial curve].

`O=S(=O)(NCC(c1ccco1)S(=O)(=O)c1ccccc1)c1ccccc1` (configuration not stated): the AC50 was 3.16 µM [rising, full curve].

Regarding `COc1ccc(N2CCN(C(=O)CCc3c(C)nc4c(-c5ccccc5)c(C)nn4c3C)CC2)cc1`, the AC50 is 15.8 µM [falling, partial curve].

`CC1=C(C(N)=O)C(c2ccc(C(C)C)cc2)n2nc(SCc3ccccc3)nc2N1` (configuration not stated): the AC50 was 6.31 µM [falling, partial curve, poor fit].

Consider `O=S(=O)(c1ccc(Br)s1)N1CCN(c2ccccn2)CC1`, for which the AC50 is 31.6 µM [falling, partial curve].

For `CCOc1ccc(S(=O)(=O)N(CC(=O)Nc2cccnc2)c2ccccc2)cc1`, the AC50 is 15.8 µM [falling, partial curve].

Take `COc1ccc(CNC(=O)CCc2cn(Cc3cc(C)ccc3C)c3ccccc23)cc1OC`: the AC50 was 12.6 µM [falling, partial curve].

In the case of `O=c1cc(-c2ccccc2)nc(SCc2nc(-c3ccc(C(F)(F)F)cc3)no2)[nH]1`, the AC50 is 1.26 µM [rising, partial curve].

For `O=C(Cn1ccn(-c2cccc(Cl)c2)c(=O)c1=O)NCCc1ccccc1`, the AC50 is 12.6 µM [falling, single point].

Regarding `COc1cccc(NC(=O)CSc2cc(=O)n(C)c3ccc(Cl)cc23)c1`, the AC50 was 0.0126 µM [falling, full curve, poor fit].

Turning to `CCCCNC(=O)C1CCN(C(=O)N2CC(C)Oc3ccc(Cl)cc32)CC1` (configuration not stated), the AC50 is 25.1 µM [falling, single point].

Take `CCOc1ccccc1NC(=O)Cc1coc2c(C)c(C)ccc12`: the AC50 was 2.51 µM [falling, partial curve].

Regarding `COc1ccc(NC(=O)c2c(C(=O)Nc3ccccc3)sc3nc(C)cc(=O)n23)cc1`, the AC50 was 2.51 µM [falling, full curve].

Turning to `COc1ccc(OCC(=O)Nc2cccc3cccnc23)cc1`, the AC50 was 39.8 µM [falling, single point].

With `N#C/C(=C\c1ccc(F)cc1)C(=O)NCC1CCCO1` (configuration not stated), the AC50 was 39.8 µM [falling, partial curve, poor fit].

Consider `Cn1cnc(S(=O)(=O)N2CCCC(C(=O)NCc3ccccc3Cl)C2)c1` (configuration not stated), for which the half-maximal activity concentration (AC50) is 7.94 µM [rising, single point] [measured here: IkB-luc green channel].

For `Cc1cccc(N2CCN(C(=O)c3cc4c(=O)n(C)c5ccccc5c4n3C)CC2C)c1` (configuration not stated), the AC50 was 2.51 µM [falling, full curve].

Consider `COC(=O)c1ccc(NC(=O)CCc2c(C)nc3c(c(C)nn3-c3ccc(C)cc3)c2C)cc1`, for which the AC50 was 10 µM [falling, partial curve].

Regarding `COc1ccccc1-c1cc(C(=O)NCc2cccs2)no1`, the AC50 was 0.00316 µM [falling, full curve].

In the case of `CCOC(=O)C1CCN(c2c(C(=O)c3ccc(OCC)cc3)cnc3ccc(OC)cc23)CC1`, the AC50 was 15.8 µM [falling, partial curve].

For `Oc1c(C(c2ccccc2F)N2CCOCC2)sc2nc(-c3ccco3)nn12` (configuration not stated), the AC50 is 10 µM [rising, partial curve].

In the case of `CCN(c1ccccc1)S(=O)(=O)c1ccc2[nH]cc(C(=O)NC3CCCCC3)c(=O)c2c1`, the AC50 was 20 µM [falling, partial curve].

As to `CCOC(=O)N1CCN(C(=O)CSc2nnc(-c3cccc(OC)c3)o2)CC1`, the AC50 is 3.98 µM [falling, partial curve].

Turning to `COc1c(C)cc(S(=O)(=O)Nc2cccc(-c3ccc(N4CCOCC4)nn3)c2)c(C)c1C`, the AC50 was 39.8 µM [falling, partial curve].

Take `COc1ccc(OCc2nnc3n2N=C(c2ccc(Br)cc2)CS3)cc1`: the AC50 is 25.1 µM [falling, single point].

`Nc1nc(NCc2cccs2)nn1-c1ccccc1`: the AC50 is 31.6 µM [falling, single point].

As for `O=C(COC(=O)c1cc2ccccc2o1)c1ccccc1`, the AC50 is 1.58 µM [falling, full curve, poor fit].

With `COc1ccc(-n2c(=O)c3ccccc3n(CC(=O)NCCc3ccccc3)c2=O)c(OC)c1`, the AC50 is 0.0398 µM [falling, full curve, poor fit].

Consider `Cc1ccc(NC(=O)CCc2c(C)nc3c(-c4ccccc4)c(C)nn3c2C)c(C)c1`, for which the AC50 was 15.8 µM [falling, partial curve].

Take `Cc1cccc(-n2cc(-c3ccccc3)c3c(NC(C)C)ncnc32)c1`: the concentration at half-maximal activity (AC50) is 39.8 µM [falling, partial curve].

Consider `CC1CCN(S(=O)(=O)c2cn(CC(=O)Nc3ccc(F)c(Cl)c3)c(=O)c3ccccc23)CC1`, for which the AC50 is 10 µM [falling, partial curve].

As to `O=C(CSc1nccn1-c1cccc(Cl)c1)Nc1cccc(C(F)(F)F)c1`, the AC50 was 12.6 µM [falling, partial curve, poor fit].

In the case of `O=C(Nc1ccccc1N1CCN(C(=O)c2ccccc2)CC1)c1ccc2c(c1)OCO2`, the AC50 is 10 µM [falling, partial curve].

With `CCCN1C(=O)C(O)(CC(=O)c2ccc(CC)cc2)c2cc(Br)ccc21` (configuration not stated), the AC50 is 25.1 µM [falling, partial curve].

Turning to `C=CCn1c(SCC(=O)N2CCOCC2)nc2scc(-c3ccco3)c2c1=O`, the AC50 is 7.94 µM [falling, partial curve].

Take `Cc1cccc(OCC(=O)Nc2nonc2-c2ccc(Br)cc2)c1C`: the AC50 was 2.51 µM [rising, partial curve, poor fit].

In the case of `COc1ccc(C(=O)Nc2ccccc2C(N)=O)cc1`, the AC50 was 12.6 µM [falling, partial curve].

As for `CCOc1ccc(CC(=O)Nc2ccc3c(c2)N(C)C(=O)c2ccccc2S3)cc1OCC`, the AC50 was 20 µM [falling, partial curve].

Consider `CCc1ccc(OCC(=O)N(Cc2ccc(C)cc2)Cc2ccco2)cc1`, for which the AC50 was 31.6 µM [falling, single point].

In the case of `Cc1cccc(C)c1-n1ncc(C(=O)NCc2ccc3c(c2)OCO3)c1C1CCN(C(=O)OC(C)(C)C)CC1`, the AC50 is 15.8 µM [falling, partial curve].

For `CCOC(=O)CSC1=C(C#N)C(c2ccco2)C(C(=O)Nc2cccc(C(F)(F)F)c2)=C(C)N1` (configuration not stated), the concentration at half-maximal activity (AC50) is 31.6 µM [falling, partial curve].

Broadly, the AC50 is the midpoint of the concentration-response curve, whichever way the signal moves.
